Assay results taken from US6599931B1, “Test system for characterizing the compatibility of bioactive substances and polyvinylpyrrolidone” (Abbott GmbH & Co. KG, priority 1998, dated 2003).

Assay: Dissolving and recrystallization behavior of active ingredient in 1,3-bis(1-pyrrolidonyl)butane (DHVP) test system
Conditions: heated
Source text: The ratios of the amounts can in principle be chosen without restriction and naturally depend essentially on the properties of the active ingredient. However, it is advisable to choose the concentration ranges in the test system so that they correspond to active ingredient contents typical of extruded forms, that is to say generally from 0.1 to 70, preferably 10 to 30% by weight of active ingredient, based on the total weight of the test system. However, it is also possible in the individual case to prepare solutions or dispersions with a concentration of 60% by weight or even higher. It is preferred to carry out test series with increasing active ingredient contents. The active ingredient(s) are weighed out, mixed with the appropriate amounts of DHVP and preferably stirred, normally with a typical laboratory magnetic stirrer at 5 to 200 rpm. […] The heating is preferably carried out so as to correspond approximately to the heating rate in a subsequent melt formulation, that is to say at 0.5 to 5° C./min. The test system is preferably heated to a maximum of 140° C. However, it is also possible in the individual case to heat to the boiling point of DHVP. The test system is then allowed to cool to room temperature.
The prepared test systems are assessed spectroscopically. […] The recrystallization behavior is also assessed. […]

COC(=O)C1=C(C)NC(C)=C(C(=O)OC)C1c1ccccc1[N+](=O)[O-] [Nifedipine]
Sol. at (temperature at which solution forms) (10% by weight in DHVP): Sol. at 50 °C | Sol. at (temperature at which solution forms) (30% by weight in DHVP): Sol. at 50 °C
